## Screening data, single-dose tests

By UniProt entry, the sequences of proteins in these tests, tags left out. Residues count along the entry.
UniProt Q8IDJ8, 1-583: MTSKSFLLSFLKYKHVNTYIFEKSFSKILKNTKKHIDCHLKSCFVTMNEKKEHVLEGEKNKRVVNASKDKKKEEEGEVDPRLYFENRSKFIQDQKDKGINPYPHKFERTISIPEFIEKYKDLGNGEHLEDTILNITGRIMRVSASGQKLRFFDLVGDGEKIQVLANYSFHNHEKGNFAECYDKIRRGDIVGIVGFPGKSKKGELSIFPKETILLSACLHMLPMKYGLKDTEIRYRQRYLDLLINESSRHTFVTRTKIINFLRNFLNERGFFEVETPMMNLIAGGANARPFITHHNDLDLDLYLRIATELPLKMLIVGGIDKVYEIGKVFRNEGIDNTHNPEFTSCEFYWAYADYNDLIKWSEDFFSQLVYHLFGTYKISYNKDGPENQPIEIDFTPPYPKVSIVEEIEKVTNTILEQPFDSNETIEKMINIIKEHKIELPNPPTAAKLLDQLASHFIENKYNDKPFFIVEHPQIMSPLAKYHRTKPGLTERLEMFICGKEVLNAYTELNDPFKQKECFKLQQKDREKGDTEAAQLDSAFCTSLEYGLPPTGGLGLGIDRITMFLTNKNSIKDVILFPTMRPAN
UniProt Q4DA54, 1-478: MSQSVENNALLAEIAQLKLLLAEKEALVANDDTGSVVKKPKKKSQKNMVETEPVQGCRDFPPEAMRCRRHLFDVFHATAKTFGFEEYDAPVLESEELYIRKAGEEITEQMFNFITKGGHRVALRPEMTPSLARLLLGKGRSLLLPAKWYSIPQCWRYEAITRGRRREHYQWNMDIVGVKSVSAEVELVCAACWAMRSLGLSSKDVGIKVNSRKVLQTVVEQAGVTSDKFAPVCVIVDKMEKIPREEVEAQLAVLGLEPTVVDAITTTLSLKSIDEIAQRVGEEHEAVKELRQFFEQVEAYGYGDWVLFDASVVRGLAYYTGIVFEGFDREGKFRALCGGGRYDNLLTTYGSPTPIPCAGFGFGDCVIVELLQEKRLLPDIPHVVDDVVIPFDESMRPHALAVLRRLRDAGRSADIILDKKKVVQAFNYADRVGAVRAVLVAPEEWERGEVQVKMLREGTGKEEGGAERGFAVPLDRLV
UniProt I6X8D2, whole entry: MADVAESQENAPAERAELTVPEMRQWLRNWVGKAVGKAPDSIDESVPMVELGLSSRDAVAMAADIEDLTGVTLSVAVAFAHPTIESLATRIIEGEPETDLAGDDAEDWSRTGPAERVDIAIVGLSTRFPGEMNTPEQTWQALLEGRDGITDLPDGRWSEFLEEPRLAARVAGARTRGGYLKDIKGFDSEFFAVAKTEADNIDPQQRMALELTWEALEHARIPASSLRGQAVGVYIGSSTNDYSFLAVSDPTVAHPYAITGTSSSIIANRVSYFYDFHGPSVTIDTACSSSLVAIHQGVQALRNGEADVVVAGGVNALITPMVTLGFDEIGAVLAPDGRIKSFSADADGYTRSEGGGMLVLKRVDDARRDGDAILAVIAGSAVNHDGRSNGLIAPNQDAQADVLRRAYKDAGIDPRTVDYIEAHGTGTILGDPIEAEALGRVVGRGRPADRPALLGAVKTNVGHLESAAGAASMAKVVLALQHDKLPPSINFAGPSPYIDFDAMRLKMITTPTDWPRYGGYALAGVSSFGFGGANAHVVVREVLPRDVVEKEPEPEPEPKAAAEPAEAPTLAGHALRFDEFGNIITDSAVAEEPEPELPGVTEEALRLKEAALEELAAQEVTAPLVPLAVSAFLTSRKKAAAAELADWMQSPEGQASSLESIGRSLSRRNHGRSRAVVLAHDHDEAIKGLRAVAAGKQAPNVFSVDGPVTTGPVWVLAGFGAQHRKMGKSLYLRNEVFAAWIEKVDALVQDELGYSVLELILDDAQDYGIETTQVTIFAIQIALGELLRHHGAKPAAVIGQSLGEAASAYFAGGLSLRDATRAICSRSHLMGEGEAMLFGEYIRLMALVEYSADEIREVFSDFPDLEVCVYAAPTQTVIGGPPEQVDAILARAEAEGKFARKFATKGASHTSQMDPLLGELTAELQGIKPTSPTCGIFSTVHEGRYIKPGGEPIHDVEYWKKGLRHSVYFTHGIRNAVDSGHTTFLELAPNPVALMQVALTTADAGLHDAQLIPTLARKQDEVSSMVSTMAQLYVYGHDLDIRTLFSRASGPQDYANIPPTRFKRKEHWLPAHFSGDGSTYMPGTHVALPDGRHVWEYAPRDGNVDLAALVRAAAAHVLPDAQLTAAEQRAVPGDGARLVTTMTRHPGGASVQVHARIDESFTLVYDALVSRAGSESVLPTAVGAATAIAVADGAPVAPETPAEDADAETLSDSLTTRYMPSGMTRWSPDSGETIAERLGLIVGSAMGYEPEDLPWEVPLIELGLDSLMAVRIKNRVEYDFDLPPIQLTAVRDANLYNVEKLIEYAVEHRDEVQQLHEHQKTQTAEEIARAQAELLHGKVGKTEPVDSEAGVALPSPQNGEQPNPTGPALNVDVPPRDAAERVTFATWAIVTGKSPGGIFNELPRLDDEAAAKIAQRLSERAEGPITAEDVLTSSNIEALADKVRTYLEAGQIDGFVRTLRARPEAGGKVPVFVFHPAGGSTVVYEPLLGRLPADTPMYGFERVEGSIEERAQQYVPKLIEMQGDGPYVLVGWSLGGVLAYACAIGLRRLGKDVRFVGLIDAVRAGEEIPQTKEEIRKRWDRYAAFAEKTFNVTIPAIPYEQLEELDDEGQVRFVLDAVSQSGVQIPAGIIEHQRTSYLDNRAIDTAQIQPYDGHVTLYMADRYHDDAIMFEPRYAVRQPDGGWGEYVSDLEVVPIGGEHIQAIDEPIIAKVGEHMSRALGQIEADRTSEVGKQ

Measurements from “University of Dundee, Small-Polar-MMV Screening Library” (2021), ChEMBL document CHEMBL3988442.

PfKRS1: 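Lysine-tRNA ligase, Plasmodium falciparum 3D7 (UniProt Q8IDJ8). Enzyme assay of the cytosolic lysyl-tRNA synthetase in 384-well plates, read by luminescence. Tested at 30 µM. Higher reads as stronger inhibition, judged from the few compounds that gave an IC50. Of about 69,000 compounds tested this way, about 49 (0.071%) reached 50% or more in at least one test.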
TcHisRS: 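Histidine-tRNA ligase, Trypanosoma cruzi CL Brener (UniProt Q4DA54). Enzyme assay of histidyl-tRNA synthetase; the read-out is not stated. Concentration: 30 µM. Higher reads as stronger inhibition (inferred: compounds with an IC50 in retests scored well above the rest). Size under these conditions: about 69,000 compounds, about 31 of them at 50% or above in at least one test.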
Pks13 thioesterase: 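Polyketide synthase Pks13, Mycobacterium tuberculosis (UniProt I6X8D2). Enzyme assay of the thioesterase domain of polyketide synthase 13; the read-out is not stated. Concentration: 30 µM. Higher reads as stronger inhibition (inferred from which compounds were picked for retests). About 67,000 compounds were tested under these conditions; 0.46% (about 300) showed 50% or more at least once.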

The filed quantity is “Percent Effect” (%).
The controls that fix the scale are not given in the record; negative values are as filed.
Compounds were drawn at random from those tested, without regard to their results.

- O=C([C@H]1CCCO1)N1CCN(CCn2cccn2)c2ncccc2C1 | PfKRS1: 3.551%; TcHisRS: 7.407%; Pks13 thioesterase: -12.4%
- O=C(C1CCCCC1)N1CCCC([C@@H]2C[C@H](C(F)F)n3ncnc3N2)C1 (stereo partly drawn) | PfKRS1: -0.4841%; TcHisRS: 1.916%; Pks13 thioesterase: 4.292%
- COc1ccnc(N2CCN(C(=O)N3CCOCC3)CC2)n1 | PfKRS1: 0.979%; TcHisRS: 2.89%; Pks13 thioesterase: -32.37%
- CCC(Nc1ccc(CCN2CCCCC2)cc1)C(N)=O (stereo not drawn) | PfKRS1: 0.6545%; TcHisRS: 14.43%; Pks13 thioesterase: -4.588%
- CCS(=O)(=O)N1CCOC2(COCCN(c3nccs3)C2)C1 (stereo not drawn) | PfKRS1: 5.955%; TcHisRS: 6.897%; Pks13 thioesterase: -40.52%
- Cc1cccnc1[C@]1(O)CC[C@H]2CN(Cc3cccc(Cl)c3Cl)C[C@H]21 | PfKRS1: 4.57%; TcHisRS: 6.667%; Pks13 thioesterase: -3.963%
- Cc1cc(CN(C)C2CCCN(Cc3noc(C4CC4)n3)C2)no1 (stereo not drawn) | PfKRS1: -3.806%; TcHisRS: 0.7576%; Pks13 thioesterase: -3.678%
- Nc1nccc(N2CCNC(C(=O)NCc3ccccn3)C2)n1 (stereo not drawn) | PfKRS1: 0.861%; TcHisRS: 3.911%; Pks13 thioesterase: 17.5%
- Cc1ccccc1CN(C)C(=O)c1cc(C2CCCN2C)ccn1 (stereo not drawn) | PfKRS1: -3.217%; TcHisRS: 13.48%; Pks13 thioesterase: -14.37%
- COc1ccc(F)c(F)c1CN1CCN(CC(C)C)C(=O)C1C (stereo not drawn) | PfKRS1: 1.562%; TcHisRS: 0%; Pks13 thioesterase: -22.39%
- Cc1nnc(NCC2(c3ccc(Cl)cc3Cl)CCOCC2)c(C#N)c1C | PfKRS1: 3.793%; TcHisRS: 8.333%; Pks13 thioesterase: -17.61%
- CS(=O)(=O)CCN(CCc1cccc(F)c1)C1CC1 | PfKRS1: -1.232%; TcHisRS: 4%; Pks13 thioesterase: 4.536%
- CCOC(=O)N1CCN(C(=O)CCn2cccc2)CC1 | PfKRS1: 7.993%; TcHisRS: 3.659%; Pks13 thioesterase: -1.094%
- CCc1noc(CN(C)C(=O)C2COc3ccccc3C2)n1 (stereo not drawn) | PfKRS1: 0.8457%; TcHisRS: -4.523%; Pks13 thioesterase: -11.39%
- Cc1nc(C)c(CC(=O)NCc2cccnc2OC2CCCC2)c(=O)[nH]1 | PfKRS1: 6.326%; TcHisRS: 1.622%; Pks13 thioesterase: -42.18%
- CN(C)c1ncccc1CNC(=O)N(Cc1ccccc1F)C1CC1 | PfKRS1: 1.199%; TcHisRS: 4.124%
- CN1CCN(Cc2cnn(-c3ccccc3Cl)c2)[C@H]2CS(=O)(=O)C[C@H]21 | PfKRS1: 8.544%; TcHisRS: 7.216%; Pks13 thioesterase: -13.7%
- O=C(NCCC1=CCCCC1)NCc1nnc2n1CCC2 | PfKRS1: 2.705%; TcHisRS: 5.303%; Pks13 thioesterase: -5.753%
- CCc1nc(CCNS(=O)(=O)c2cccc(C(=O)N(C)CC)c2)cs1 | PfKRS1: 3.541%; TcHisRS: 5.455%; Pks13 thioesterase: -18.91%
- Cc1cn(-c2ccccc2)nc1NS(=O)(=O)c1cc(C(=O)O)cs1 | PfKRS1: 3.095%; TcHisRS: 1.653%; Pks13 thioesterase: -4.446%
- c1cn(-c2ccc(N3CCC(NC4CC4)CC3)cc2)cn1 | PfKRS1: 7.553%; TcHisRS: 3.004%; Pks13 thioesterase: -11.37%
- Cc1cccc2c1NC(c1cnc(C3CCC3)s1)NC2=O (stereo not drawn) | PfKRS1: -3.518%; TcHisRS: 0.4808%; Pks13 thioesterase: 9.792%
- Cc1cc(CN[C@H](C(N)=O)[C@@H](C)O)c(C)s1 | PfKRS1: 2.377%; TcHisRS: 2.703%; Pks13 thioesterase: 8.514%
- COc1cn(-c2ccccc2)nc1C(=O)NCCN1CCCC(C)C1 (stereo not drawn) | PfKRS1: 2.526%; TcHisRS: 6.897%; Pks13 thioesterase: -14%
- CC(=O)Nc1ncc(S(=O)(=O)Nc2ccc3c(c2)OCCO3)s1 | PfKRS1: 2.509%; TcHisRS: 35.65%; Pks13 thioesterase: -5.764%
- CC(C)(C)NC(=O)CNC(=O)CCc1ccccc1Br | PfKRS1: 3.788%; TcHisRS: 1.626%; Pks13 thioesterase: 13.14%
- N#Cc1cccnc1N1CCN(C(=O)CCC(=O)c2cccs2)CC1 | PfKRS1: -4.902%; TcHisRS: 5.556%; Pks13 thioesterase: 11.12%
- Fc1ccc(CN2CCCCC2Cn2cncn2)c2ncccc12 (stereo not drawn) | PfKRS1: 3.553%; TcHisRS: 18.45%; Pks13 thioesterase: -13.4%
- O=C([C@@H]1C[C@@H]2CCN(Cc3ccco3)C[C@H]2O1)N1CCCO1 | PfKRS1: 2.749%; TcHisRS: 2.151%; Pks13 thioesterase: -13.59%
- O=C(c1ccoc1)N1CCC2(CC1)COC(COCc1ccccn1)C2 (stereo not drawn) | PfKRS1: -2.804%; TcHisRS: 6.522%; Pks13 thioesterase: 24.84%

For reference, 2 entries once more:

Compound	PfKRS1	TcHisRS	Pks13 thioesterase
CN1CCN(Cc2cnn(-c3ccccc3Cl)c2)[C@H]2CS(=O)(=O)C[C@H]21	8.544	7.216	-13.7
CCc1nc(CCNS(=O)(=O)c2cccc(C(=O)N(C)CC)c2)cs1	3.541	5.455	-18.91